Data: the supplement of paper PMC10331698
± gives the standard deviation of the averaged measurements. Small differences around the control level are noise.

Experiments:
Test in all cases: level (log10 ratio to DMSO vehicle control); higher = higher biomarker level / cell amount than vehicle control
[1] = compound: FC(F)(F)C(F)(F)C(F)(F)C(F)(F)C(F)(F)C(F)(F)CC1CO1 [3-(Perfluorohexyl)-1,2-epoxypropane]; conditions: 2200 nM; in DMSO
Method: (§1)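 BioMAP Diversity Plus panel of 12 human primary cell co-culture systems (3C, 4H, LPS, SAg, BT, BF4T, BE3C, CASM3C, HDF3CGF, KF3CT, MyoF, Mphg). Compounds were added 1 h before stimulation and left for 24 h (MyoF 48 h; BT 72 h for soluble read-outs or 6 d for IgG). Biomarkers were read by ELISA, cytotoxicity by SRB, PBMC viability and proliferation by Alamar Blue. Each well value was divided by the mean of 8 DMSO control wells on the same plate and log10 transformed; duplicate blinded samples were tested at 4 concentrations.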

[2] = compound: CCCCCCCCC(F)(F)C(F)(F)C(F)(F)C(F)(F)C(F)(F)C(F)(F)F [1-(Perfluorohexyl)octane]; conditions: in DMSO
Method: as §1

[3] = compound: O=C(O)C(F)(F)C(F)(F)C(F)(F)C(F)(F)C(F)(F)C(F)(F)F [Perfluoroheptanoic acid]; conditions: in DMSO
Method: as §1

[4] = compound: Cc1ccc(S(=O)(=O)OCC(F)(F)C(F)(F)C(F)(F)C(F)(F)C(F)(F)C(F)F)cc1 [1H,1H,7H-Perfluoroheptyl 4-methylbenzenesulfonate]; conditions: 2200 nM; in DMSO
Method: as §1

[5] = compound: CC(C)(C)C(=O)CC(=O)C(F)(F)C(F)(F)C(F)(F)F [(Heptafluorobutanoyl)pivaloylmethane]; conditions: 2200 nM; in DMSO
Method: as §1

[6] = compound: O=C(O)C(F)(F)C(F)(F)C(F)(F)C(F)(F)F [Perfluoropentanoic acid]; conditions: in DMSO
Method: as §1

[7] = compound: CCN(CCO)S(=O)(=O)C(F)(F)C(F)(F)C(F)(F)C(F)(F)C(F)(F)C(F)(F)C(F)(F)C(F)(F)F [N-Ethyl-N-(2-hydroxyethyl)perfluorooctanesulfonamide]; conditions: in DMSO
Method: as §1

[8] = compound: CN(C(=O)C(F)(F)C(F)(F)C(F)(F)F)[Si](C)(C)C [N-Methyl-N-trimethylsilylheptafluorobutyramide]; conditions: 2200 nM; in DMSO
Method: as §1

[9] = compound: O=S(=O)(O)CCC(F)(F)C(F)(F)C(F)(F)C(F)(F)C(F)(F)C(F)(F)C(F)(F)C(F)(F)F [8:2 Fluorotelomer sulfonic acid]; conditions: in DMSO
Method: as §1

[10] = compound: O=C(O)C(F)(F)C(F)(F)C(F)(F)C(F)(F)C(F)(F)C(F)(F)C(F)(F)C(F)(F)C(F)(F)C(F)F [11-H-Perfluoroundecanoic acid]; conditions: 2200 nM; in DMSO
Method: as §1

[11] = compound: NC(=O)C(F)(F)C(F)(F)C(F)(F)F [Heptafluorobutyramide]; conditions: 2200 nM; in DMSO
Method: as §1

[12] = compound: OCC(F)(F)C(F)(F)C(F)(F)F [1H,1H-Heptafluorobutanol]; conditions: 2200 nM; in DMSO
Method: as §1

[13] = compound: O=C(O)C(F)(F)C(F)(F)C(F)(F)OC(F)(F)F [Perfluoro(4-methoxybutanoic) acid]; conditions: 2200 nM; in DMSO
Method: as §1

[14] = compound: O=C(O)C(F)(F)C(F)(F)C(F)(F)C(F)(F)C(=O)O [Octafluoroadipic acid]; conditions: 2200 nM; in DMSO
Method: as §1

[15] = compound: NCC(F)(F)C(F)(F)C(F)(F)C(F)(F)C(F)(F)C(F)(F)C(F)(F)F [1H,1H-Perfluorooctylamine]; conditions: 2200 nM; in DMSO
Method: as §1

[16] = compound: OCCC(F)(F)C(F)(F)C(F)(F)C(F)(F)C(F)(F)C(F)(F)F [6:2 Fluorotelomer alcohol]; conditions: 2200 nM; in DMSO
Method: as §1

Test System	level (log10) [1]	level (log10) ([2]; 740 nM)	level (log10) ([2]; 2200 nM)	level (log10) ([3]; 2200 nM)	level (log10) ([3]; 6700 nM)	level (log10) ([3]; 20000 nM)	level (log10) ([3]; 60000 nM)	level (log10) [4]	level (log10) [5]	level (log10) ([6]; 2200 nM)	level (log10) ([6]; 6700 nM)	level (log10) ([6]; 20000 nM)	level (log10) ([6]; 60000 nM)	level (log10) ([7]; 2200 nM)	level (log10) ([7]; 6700 nM)	level (log10) ([7]; 20000 nM)	level (log10) [8]	level (log10) ([9]; 2200 nM)	level (log10) ([9]; 6700 nM)	level (log10) ([9]; 20000 nM)	level (log10) ([9]; 60000 nM)	level (log10) [10]	level (log10) [11]	level (log10) [12]	level (log10) [13]	level (log10) [14]	level (log10) [15]	level (log10) [16]
BE3C:MMP-1	0.046 ± 0.072	0.0205 ± 0.013	0.0055 ± 0.0064	0.0705 ± 0.037	0.0345 ± 0.015	0.0405 ± 0.043	0.0865 ± 0.067	0.0355 ± 0.035	-0.002 ± 0.017	0.0195 ± 0.084	-0.015 ± 0.03	-0.0175 ± 0.029	0.027 ± 0.047	0.083 ± 0.0071	0.255 ± 0.03	0.328 ± 0.0071	0.02 ± 0.064	0.0285 ± 0.022	0.048 ± 0.024	0.1715 ± 0.00071	0.232 ± 0.027	0.0195 ± 0.037	0.0215 ± 0.037	-0.003 ± 0.03	0.0255 ± 0.036	0.017 ± 0.086	-0.0185 ± 0.021	-0.0165 ± 0.0078
BE3C:MMP-9	-0.0095 ± 0.0078	0.011 ± 0.037	-0.009 ± 0.011	0.0245 ± 0.011	0.0015 ± 0.018	0.042 ± 0.0014	0.0785 ± 0.057	0.0075 ± 0.005	-0.01 ± 0.0099	0.0055 ± 0.042	-0.0325 ± 0.0078	-0.0105 ± 0.015	0.0215 ± 0.035	0.0045 ± 0.021	0.018 ± 0.0071	-0.0535 ± 0.04	0.0065 ± 0.0035	0.0015 ± 0.00071	0.0045 ± 0.0064	0.0325 ± 0.035	0.015 ± 0.031	-0.024 ± 0.033	-0.002 ± 0.0085	0.013 ± 0.016	0.0155 ± 0.019	0.006 ± 0.017	0.0055 ± 0.028	0.0155 ± 0.028
BE3C:PAI-I	0.012 ± 0.025	-0.0035 ± 0.047	0.0115 ± 0.0064	0.013 ± 0.014	0.007 ± 0.0028	0.027 ± 0.0057	0.042 ± 0.021	0.0015 ± 0.0078	-0.039 ± 0.065	0.002 ± 0.04	-0.021 ± 0.0071	-0.02 ± 0.0057	0.015 ± 0.057	-0.0085 ± 0.005	-0.066 ± 0.0071	-0.092 ± 0.017	-0.0015 ± 0.029	0.029 ± 0.016	0.044 ± 0.014	0.126 ± 0.026	0.0955 ± 0.011	0.043 ± 0.021	-0.001 ± 0.016	-0.0225 ± 0.0092	0.01 ± 0.0071	0.008 ± 0.017	-0.01 ± 0.017	-0.0115 ± 0.013
BE3C:SRB	0.0055 ± 0.016	0.001 ± 0.0042	-0.0025 ± 0.0035	0.002 ± 0.016	-0.006 ± 0.0071	-0.0065 ± 0.0035	0.0035 ± 0.011	-0.002 ± 0.0042	-0.004 ± 0.0057	0.012 ± 0.021	0.002 ± 0.0085	-0.0035 ± 0.005	0 ± 0.016	0.0075 ± 0.011	-0.0175 ± 0.011	-0.04 ± 0.0071	-0.003 ± 0.0028	0.0095 ± 0.023	-0.007 ± 0.0071	-0.017	-0.025 ± 0.0085	-0.0015 ± 0.0035	-0.0005 ± 0.0092	0.001 ± 0.0099	0.001 ± 0.0085	0.0005 ± 0.0092	0.013 ± 0.0057	0.002 ± 0.016
BE3C:tPA	0.0145 ± 0.046	0.041 ± 0.041	0.0145 ± 0.046	0.0225 ± 0.06	-0.0205 ± 0.026	-0.0255 ± 0.0078	0.017 ± 0.031	0.0135 ± 0.059	-0.0155 ± 0.035	-0.001 ± 0.037	-0.059 ± 0.011	-0.043 ± 0.017	-0.013 ± 0.064	0.12 ± 0.021	0.142 ± 0.0099	-0.036 ± 0.058	0.004 ± 0.014	0.0415 ± 0.00071	0.0755 ± 0.021	0.0535 ± 0.0064	-0.021 ± 0.0099	0.102 ± 0.054	-0.0105 ± 0.0064	0.008 ± 0.0085	-0.0035 ± 0.018	0.0105 ± 0.0078	-0.0025 ± 0.0092	0.0115 ± 0.028
